PubChem BioAssay AID1259273 – Sanger Institute, 2017

Aim: 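Confirm kinome hits that work in synergy with targeted cancer drugs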 (follow-up of hits)
System: human NCI-H630 colorectal cancer cells
Knock-down reagent: single siRNA against human genes
Treatment: anchor drugs BYL719 at 1 µM, cetuximab at 5 µg/ml or trametinib at 10 nM, or DMSO vehicle alone
Measured: 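Replicate-averaged viability scaled to non-targeting control pool wells, plus per-drug synergy scores comparing knock-down with drug to knock-down only and drug only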
Direction: synergy score with trametinib and synergy score with BYL719 and synergy score with cetuximab: higher = stronger synergy, more synthetic lethal
Hit rule: 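Called synergistic (synthetic lethal) when the mean synergy score is above 0.10 for one or more of the three anchor drugs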
In all, the deposit lists 160 reagents; this is a random part of them. In the full data, 36 (22%) got an active call. 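Four distinct siRNA duplexes per gene; each call applies to one duplex and is not gene-level validation across cell lines.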 Reagents against one gene are numbered here. Not all columns of the deposit are shown. Reagent sequences are not shown. Not stated in the record: the amount of reagent, the time to read-out.

| synergy score with trametinib | synergy score with BYL719 | synergy score with cetuximab | activity call | gene | reagent no. |
| --- | --- | --- | --- | --- | --- |
| -0.103 | -0.146 | -0.23 | inactive | ACVR1 | 1 |
| 0.0257 | -0.146 | -0.153 | inactive | ACVR1 | 2 |
| -0.103 | -0.146 | -0.23 | inactive | ACVR1 | 3 |
| -0.0241 | -0.245 | -0.139 | inactive | ACVR1 | 4 |
| 0.198 | 0.0381 | -0.07 | active | CHD4 | 1 |
| -0.00418 | -0.181 | -0.0031 | inactive | CHD4 | 2 |
| -0.00807 | -0.115 | -0.075 | inactive | CHD4 | 3 |
| -0.103 | -0.146 | -0.23 | inactive | CHD4 | 4 |
| 0.0415 | -0.123 | -0.0839 | inactive | NLK | 1 |
| 0.0805 | -0.0438 | 0.0392 | inactive | NLK | 2 |
| -0.103 | -0.146 | -0.226 | inactive | NLK | 3 |
| -0.101 | -0.146 | -0.23 | inactive | NLK | 4 |
| 0.00749 | -0.107 | -0.233 | inactive | HUNK | 1 |
| 0.13 | -0.00575 | 0.0729 | active | HUNK | 2 |
| -0.103 | -0.116 | -0.085 | inactive | HUNK | 3 |
| 0.091 | 0.0665 | 0.112 | active | HUNK | 4 |
| 0.0347 | 0.0427 | -0.117 | inactive | IRAK3 | 1 |
| 0.0664 | -0.108 | 0.0127 | inactive | IRAK3 | 2 |
| 0.00835 | -0.146 | -0.0981 | inactive | IRAK3 | 3 |
| -0.0527 | -0.0984 | -0.18 | inactive | IRAK3 | 4 |
| -0.103 | -0.146 | -0.135 | inactive | MAPK4 | 1 |
| -0.0495 | -0.143 | 0.0103 | inactive | MAPK4 | 2 |
| -0.0224 | -0.146 | -0.015 | inactive | MAPK4 | 3 |
| -0.0214 | -0.0646 | -0.0334 | inactive | MAPK4 | 4 |

Targets listed so far whose target name starts with A or a:
| synergy score with trametinib | synergy score with BYL719 | synergy score with cetuximab | activity call | gene | reagent no. |
| --- | --- | --- | --- | --- | --- |
| -0.103 | -0.146 | -0.23 | inactive | ACVR1 | 1 |
| 0.0257 | -0.146 | -0.153 | inactive | ACVR1 | 2 |
| -0.103 | -0.146 | -0.23 | inactive | ACVR1 | 3 |
| -0.0241 | -0.245 | -0.139 | inactive | ACVR1 | 4 |

The listing continues:
| synergy score with trametinib | synergy score with BYL719 | synergy score with cetuximab | activity call | gene | reagent no. |
| --- | --- | --- | --- | --- | --- |
| -0.0523 | -0.197 | -0.238 | inactive | BRAF | 1 |
| 0.32 | 0.135 | 0.0848 | active | BRAF | 2 |
| -0.0923 | -0.175 | -0.159 | inactive | BRAF | 3 |
| 0.148 | -0.116 | -0.0488 | active | BRAF | 4 |
| 0.135 | -0.124 | -0.129 | active | IRAK1 | 1 |
| -0.103 | -0.0405 | -0.0538 | inactive | IRAK1 | 2 |
| -0.0244 | 0.0506 | 0.0433 | inactive | IRAK1 | 3 |
| -0.0862 | -0.145 | -0.0903 | inactive | IRAK1 | 4 |
| 0.108 | -0.0894 | -0.0587 | active | PAK1 | 1 |
| 0.169 | -0.0394 | 0.054 | active | PAK1 | 2 |
| 0.108 | 0.0238 | -0.013 | active | PAK1 | 3 |
| -0.0307 | 0.0486 | -0.0816 | inactive | PAK1 | 4 |
| -0.0803 | -0.0089 | -0.117 | inactive | SF3B1 | 1 |
| 0.0506 | 0.019 | -0.00155 | inactive | SF3B1 | 2 |
| -0.0037 | 0.051 | -0.0696 | inactive | SF3B1 | 3 |
| -0.14 | -0.0466 | -0.0745 | inactive | SF3B1 | 4 |
| -0.103 | -0.146 | -0.206 | inactive | AK2 | 1 |
| -0.000826 | -0.144 | -0.182 | inactive | AK2 | 2 |
| -0.103 | -0.146 | -0.23 | inactive | AK2 | 3 |
| 0.0795 | -0.146 | 0.0329 | inactive | AK2 | 4 |
| -0.103 | -0.146 | -0.229 | inactive | PINK1 | 1 |
| 0.0831 | -0.128 | -0.165 | inactive | PINK1 | 2 |
| 0.0421 | -0.0614 | -0.0108 | inactive | PINK1 | 3 |
| 0.147 | -0.0735 | 0.0331 | active | PINK1 | 4 |
| 0.00826 | -0.0606 | -0.0903 | inactive | PIK3CA | 1 |
| 0.0359 | -0.205 | 0.0139 | inactive | PIK3CA | 2 |
| 0.0144 | -0.115 | -0.23 | inactive | PIK3CA | 3 |
| -0.103 | -0.146 | -0.23 | inactive | PIK3CA | 4 |
